Results published in paper PMC9860117, “The nematode α-catenin ortholog, HMP1, has an extended α-helix when bound to actin filaments” (The Journal of Biological Chemistry, 2022).
Results are given in words; binding and its absence hold for the method and conditions named. Some entries that bind do so weakly or less than the wild type.

B1: full-length zebrafish (Danio rerio) α-catenin (protein, UniProt Q9PVF8 1-907)
chain: MTSINTANINFKWDPKSLEIRTLAVERLLEPLVTQVTTLVNSSNKGPSNKKKGRSKKAHVLAASVDEATQNFLEKGEKIAKESQFLKEELTAAVEDVRKQGESMKMASGEFAEDPCSSVKRGNMVRAARALLSAVTHLLVLADMADVYQLLLQLKLVEENLMKVRNAGTEQDLGIQYKALKPEVDKLNMMAAKRQQELKDVHHKDQMAAARGVLQRNVPMLYTASRACLQHPDVAAYKANRDLIYKQLQHAVSGISNAAQATSSEDSSFSQTAGGGELAYALNNFDKQIIVDPLSFSEERFRPSLEERLESIISGAALMADSSCTRDDRRERIVAECNSVRQALQDLLSEYMGNAGRKEKSDALNTAIDRMTKKTRDLRRQLRKAVMDHVSDSFLETNVPLLVLIEAAKNGNEKEVKEYAQVFREHANKLIEVANLACSISNNEEGVKLVRMAASQLETLCPQVINAALALAAKPNSKVAQDNMDLFKDQWEKQVRVLTDAVDDITSIDDFLCVSENHILEDVNKCVIALQEKDVDGLDRTAGAIRGRAARVVHVVTSEMDNYMPGVYTEKVLEATKLLTETVMPRFTEQVEAAVEALSANNGQPVDENEFIDASRLVYDGVRDIRKAVLMIRTPEELDDSDFETEDFDSRSRTSVQTEDDQLIAGQSARAIMAQLPQEQKAKIAEQVASFQEEKSKLDAEVSKWDDSGNDIIVLAKQMCMIMMEMTDFTRGKGPLKNTSDVISAAKKIAEAGSRMDKLGRAIADQCPDSACKQDLLAYLQRIALFCHQLNICSKVKAEVQNLGGELVVSGLDSAMSLIQAAKNLMNSVVSTVKASYVASTKYQKSQDMQSLNMPAISWKMKAPEKKPLVKREKLDDGQTNKVKRSSQKKHINPVQALSEFKAMDSI
B2: full-length HMP1/α-catenin (Caenorhabditis elegans α-catenin ortholog), P90947 1-927 (protein)
chain: MPANGNSHAYFNIDEVRSKNVLKQITQLINEVTNITETFPLKPGQTTEGLVATLDAAVANFLQTGSFAISKCPIANSDPRAIDLLHEALGAVQDTGQVMIQTGRDFVRDSTSTNKRAIATNSGRNLLTAVAKFLILADSIDVKVIVDKVDEVRETAHQMIEADTKIKVDDLYNLLISQIEELDITVRRRAIDLVKPNQRDDLLAARSALRQTAPLLYTSTRTFVRHPEHEEARRNRDYTADEMHSALNALESVLNGQQPKVTFSEYGRIGDLINEIDTFQNRIEIDPAHYRRGTDRPDLEGHCERIVSGSASIADAESTRENRKQKIVAECNNLRQALQELLTEYEKSTGRRDDNDDIPLGIAEVHKRTKDLRRHLRRAIVDHISDAFLDTRTPLILLIEAAKEGHEENTRYRSKMFQEHANEIVSVARLSCQLSSDVESVSVIQHTAAQLEKLAPQVAQAAILLCHQPTSKTAQENMETYKNAWFDKVRLLTTALDNITTLDDFLAVSEAHIVEDCERGIKGITANASTPDENAANCETVDCAAGSIRGRALRVCDVVDAEMDFLQNSEYTETVKQAVRILKTQRVDQFAERASALANRQEAHGLTWDPKTKEEEMNEFINACTLVHDAVKDIRHALLMNRSMNDVDSDVEYEADGVGAANADANRTISEQENQQNLMRRLPEEEKKKIQAQIDIFKVTQTRFEREVAKWDETGNDIISLANNMCKIMMSMTEFTRGCGPLKTTMDVIRAAQEISLNGSKLNALARQIGEESADSQTKKDLLAYLSQITLYCQQLNICSKVKADVTQVGNELVVSALDSAMSLIQTARNLLTAVVQTVKAAYIASTKFRRPNANSVRVEWRMAPPKKQPLIRPQKNNAIIRRASERRPLQPAKVLAEFTRNEIETGRDSDDEELDRRHQQRINGRL

Assays:
[1] = molecular target: full-length zebrafish (Danio rerio) α-catenin (Danio rerio) (UniProt Q9PVF8); assay: SEC-MALS; Superdex S200 10/300 Gl, 20 mM Tris pH 8, 150 mM NaCl, 0.2 mM TCEP, 0.5 ml/min; monomer peak fractions pooled from a previous SEC; both purified
[2] = molecular target: T1, full-length HMP1/α-catenin (Caenorhabditis elegans α-catenin ortholog) (C. elegans), P90947; assay: as above; conditions: remark: other sources report otherwise
T1 chain: B2 chain

Row | Binder | binding [1] | binding [2]
1 | B1 | binds weakly | 
2 | B2 |  | no binding
